Results are given in words; binding and its absence hold for the method and conditions named. For some assays here: In cells and extracts the contact can be indirect. Some entries that bind do so weakly or less than the wild type.
Legend:
[1] = target: T1, MRTF-A (myocardin-related transcription factor A), endogenous in macrophages (mouse (endogenous in RAW264 and BMDMs)) (UniProt Q8K4J6); experiment: co-IP; whole cell lysates from RAW cells (RIPA buffer: 50 mM Tris pH 7.4, 150 mM NaCl, 1% Triton X-100) immunoprecipitated with anti-MRTF-A or IgG; Protein A/G-plus agarose; Western blot
T1 sequence: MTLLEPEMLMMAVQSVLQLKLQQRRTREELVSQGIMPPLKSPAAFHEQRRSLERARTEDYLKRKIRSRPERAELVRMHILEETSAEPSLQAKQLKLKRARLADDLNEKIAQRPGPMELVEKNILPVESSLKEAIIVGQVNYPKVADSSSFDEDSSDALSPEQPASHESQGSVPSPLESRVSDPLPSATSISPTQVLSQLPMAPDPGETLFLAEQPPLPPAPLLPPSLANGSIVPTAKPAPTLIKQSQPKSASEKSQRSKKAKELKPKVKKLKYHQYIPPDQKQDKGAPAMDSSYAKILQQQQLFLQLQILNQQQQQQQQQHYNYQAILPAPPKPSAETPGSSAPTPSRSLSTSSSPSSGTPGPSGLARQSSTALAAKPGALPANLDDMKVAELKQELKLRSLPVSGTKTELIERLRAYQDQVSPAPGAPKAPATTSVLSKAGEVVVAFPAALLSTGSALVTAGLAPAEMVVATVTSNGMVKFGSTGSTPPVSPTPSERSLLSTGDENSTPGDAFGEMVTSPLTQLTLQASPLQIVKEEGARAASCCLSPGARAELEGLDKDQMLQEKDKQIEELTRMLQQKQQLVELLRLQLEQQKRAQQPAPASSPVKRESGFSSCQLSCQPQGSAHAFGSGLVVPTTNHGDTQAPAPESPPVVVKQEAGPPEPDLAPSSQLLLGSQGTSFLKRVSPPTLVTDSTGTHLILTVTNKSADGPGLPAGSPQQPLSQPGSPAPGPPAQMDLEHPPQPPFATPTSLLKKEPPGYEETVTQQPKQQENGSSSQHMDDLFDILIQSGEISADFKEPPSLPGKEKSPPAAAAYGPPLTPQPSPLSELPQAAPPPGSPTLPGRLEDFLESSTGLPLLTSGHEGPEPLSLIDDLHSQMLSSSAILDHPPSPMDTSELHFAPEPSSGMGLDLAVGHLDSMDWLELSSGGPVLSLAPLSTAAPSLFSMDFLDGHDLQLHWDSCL

The chains behind the UniProt entries cited, without tags or fusion partners.
UniProt Q8CHK4: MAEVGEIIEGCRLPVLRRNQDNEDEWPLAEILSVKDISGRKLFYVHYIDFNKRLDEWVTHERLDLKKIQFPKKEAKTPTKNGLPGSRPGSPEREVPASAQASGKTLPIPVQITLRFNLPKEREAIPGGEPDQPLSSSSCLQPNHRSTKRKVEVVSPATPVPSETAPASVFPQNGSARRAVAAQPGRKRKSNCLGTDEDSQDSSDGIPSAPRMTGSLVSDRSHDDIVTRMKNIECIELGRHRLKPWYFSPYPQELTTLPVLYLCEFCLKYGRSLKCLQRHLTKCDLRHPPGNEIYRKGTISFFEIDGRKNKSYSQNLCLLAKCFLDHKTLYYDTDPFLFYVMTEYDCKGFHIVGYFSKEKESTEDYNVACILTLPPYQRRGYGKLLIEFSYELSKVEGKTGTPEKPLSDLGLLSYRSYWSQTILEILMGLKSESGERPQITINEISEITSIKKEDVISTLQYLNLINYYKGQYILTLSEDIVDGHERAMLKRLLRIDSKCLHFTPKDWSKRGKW

[2] = target: T1, MRTF-A (myocardin-related transcription factor A), endogenous in macrophages (mouse (endogenous in RAW264 and BMDMs)); experiment: Re-ChIP; RAW264 cells or primary BMDMs exposed to hypoxia-reoxygenation; Re-ChIP with indicated antibodies; iNOS promoter (GAPDH promoter as control)

“TIP60, endogenous in macrophages (from UniProt Q8CHK4 1-513) (enzyme)” was tested, and the binding [1] was “binds” and the binding [2] was “binds”.
